Assay results from publication PMC4745783, “The HGF inhibitory peptide HGP-1 displays promising in vitro and in vivo efficacy for targeted cancer therapy” (Oncotarget, 2015).
Results are given in words; binding and its absence hold for the method and conditions named. Some entries that bind do so weakly or less than the wild type.

Protein sequences, listed by entry. Tags and fused reporters are not part of them. Residues count along the entry.
UniProt P14210, residues 32-728: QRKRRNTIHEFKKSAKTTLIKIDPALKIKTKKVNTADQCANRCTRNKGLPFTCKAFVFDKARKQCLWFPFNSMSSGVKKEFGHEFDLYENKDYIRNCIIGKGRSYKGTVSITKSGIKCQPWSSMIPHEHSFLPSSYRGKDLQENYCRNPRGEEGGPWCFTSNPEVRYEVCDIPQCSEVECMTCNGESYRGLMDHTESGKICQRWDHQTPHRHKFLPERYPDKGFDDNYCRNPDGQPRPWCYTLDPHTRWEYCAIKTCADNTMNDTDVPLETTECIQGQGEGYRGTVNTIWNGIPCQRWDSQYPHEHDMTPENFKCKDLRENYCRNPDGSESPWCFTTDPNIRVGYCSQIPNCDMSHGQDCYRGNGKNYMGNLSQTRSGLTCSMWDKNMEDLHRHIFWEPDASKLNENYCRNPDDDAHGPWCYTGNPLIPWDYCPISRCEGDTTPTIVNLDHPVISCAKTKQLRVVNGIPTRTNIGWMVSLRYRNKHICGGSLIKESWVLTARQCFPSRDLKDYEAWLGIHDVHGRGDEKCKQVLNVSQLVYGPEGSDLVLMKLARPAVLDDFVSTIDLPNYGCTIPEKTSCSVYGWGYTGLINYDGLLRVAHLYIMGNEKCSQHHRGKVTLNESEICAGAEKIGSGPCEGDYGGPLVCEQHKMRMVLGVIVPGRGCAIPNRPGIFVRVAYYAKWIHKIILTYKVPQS

B1: HGF binding peptide-1 displayed on the surface of bacteria (peptide)
chain: HRGLKWEIVPWSGCG
B2: HGF binding peptide, clone 10, displayed on bacteria (peptide)
chain: YRWGMGGYEYWCNRG
B3: HGF binding peptide, clone 11, displayed on bacteria (peptide)
chain: QRCGMVRFNDWQHPM
B4: HGF binding peptide, clone 12, displayed on bacteria (peptide)
chain: GTARLLWRPVVTYDC
B5: HGF binding peptide, clone 13, displayed on bacteria (peptide)
chain: MGGGSWLYVGDPDCW
B6: HGF binding peptide, clone 14, displayed on bacteria (peptide)
chain: RSSMWDCYYFDCCNW
B7: HGF binding peptide, clone 15, displayed on bacteria (peptide)
chain: ALQQAWGWWDCYGWR
B8: HGF binding peptide, clone 16, displayed on bacteria (peptide)
chain: MYNVRLNDWYWCGWD
B9: HGF binding peptide, clone 17, displayed on bacteria (peptide)
chain: SPWWSVYETQSCAVR
B10: HGF binding peptide, clone 18, displayed on bacteria (peptide)
chain: YWYGWGSGWSGCDHA
B11: HGF binding peptide-2 displayed on the surface of bacteria (peptide)
chain: TLYEVDLREWCAGIVG
B12: HGF binding peptide-3 displayed on the surface of bacteria (peptide)
chain: TYFTWWELSPGCEEH
B13: HGF binding peptide, clone 4, displayed on bacteria (peptide)
chain: RANWFCIEDSVYCGK
B14: HGF binding peptide, clone 5, displayed on bacteria (peptide)
chain: SARKLGWCPYWSSDC
B15: HGF binding peptide, clone 6, displayed on bacteria (peptide)
chain: MEVERRWPWWHANYW
B16: HGF binding peptide, clone 7, displayed on bacteria (peptide)
chain: AYMMRDLWEYNWTSG
B17: HGF binding peptide, clone 8, displayed on bacteria (peptide)
chain: KGYGRYWWDCGDNFW
B18: HGF binding peptide, clone 9, displayed on bacteria (peptide)
chain: YWPGCQEWGNKWWGG

What was measured:
[1] = target: Biotinylated recombinant human full length HGF (human) (UniProt P14210); assay: flow cytometry on cells; sorting of a random X15 library displayed on E. coli: one cycle of MACS with 42.5 nM biotinylated HGF, then 13 cycles of FACS with biotinylated HGF 20 nM to 5 nM, 4°C 45 minutes, streptavidin-phycoerythrin; 10% human serum in the last cycles; sorted clones sequenced; only the target purified
[2] = target: Biotinylated recombinant human full length HGF (human) (UniProt P14210); assay: flow cytometry on cells; competition: 10^7 bacteria incubated with 7 nM HGF alone or with the same molarity of VEGF-165, EGF, bFGF or BSA; the pair that is blocked; only the target purified
[3] = target: Biotinylated recombinant human full length HGF (human) (UniProt P14210); assay: flow cytometry on cells; 10^7 bacteria of single clones incubated with biotinylated HGF as in sorting; regular washing ('original') or stringent washing ('washed': 3 times 10 minutes in PBS pH 7.4 at 4°C); PE-A fluorescence; only the target purified

Binder | binding [1] | binding [2] | binding [3]
B1 | binds | binds | binds
B2 | binds | – | –
B3 | binds | – | –
B4 | binds | – | –
B5 | binds | – | –
B6 | binds | – | –
B7 | binds | – | –
B8 | binds | – | –
B9 | binds | – | –
B10 | binds | – | –
B11 | binds | – | binds
B12 | binds | – | binds
B13 | binds | – | –
B14 | binds | – | –
B15 | binds | – | –
B16 | binds | – | –
B17 | binds | – | –
B18 | binds | – | –
